# Laboratory results from paper PMC5327575.
# The chains behind the UniProt entries cited, without tags or fusion partners. Residues count along the entry.
# UniProt P35222: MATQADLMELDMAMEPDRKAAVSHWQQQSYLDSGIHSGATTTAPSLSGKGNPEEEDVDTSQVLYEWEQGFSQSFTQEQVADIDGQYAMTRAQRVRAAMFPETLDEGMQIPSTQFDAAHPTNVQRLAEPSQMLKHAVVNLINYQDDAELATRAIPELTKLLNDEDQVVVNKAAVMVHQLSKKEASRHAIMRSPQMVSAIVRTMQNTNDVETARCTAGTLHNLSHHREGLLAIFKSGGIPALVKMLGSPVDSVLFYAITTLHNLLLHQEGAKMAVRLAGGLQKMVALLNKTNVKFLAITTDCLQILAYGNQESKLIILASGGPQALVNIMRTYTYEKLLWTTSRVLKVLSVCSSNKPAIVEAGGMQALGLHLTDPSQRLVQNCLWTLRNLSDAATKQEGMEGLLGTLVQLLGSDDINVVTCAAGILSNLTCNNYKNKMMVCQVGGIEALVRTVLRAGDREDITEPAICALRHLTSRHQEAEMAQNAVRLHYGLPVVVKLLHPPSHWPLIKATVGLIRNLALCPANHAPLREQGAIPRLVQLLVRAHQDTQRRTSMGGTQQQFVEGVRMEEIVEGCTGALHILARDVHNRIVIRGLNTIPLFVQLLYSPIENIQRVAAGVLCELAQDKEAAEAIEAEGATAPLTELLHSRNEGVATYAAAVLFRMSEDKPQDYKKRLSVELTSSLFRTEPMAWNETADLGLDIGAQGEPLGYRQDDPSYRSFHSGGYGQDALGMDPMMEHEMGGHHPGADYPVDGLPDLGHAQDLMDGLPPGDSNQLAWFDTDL
# UniProt P46531, residues 1754-2555: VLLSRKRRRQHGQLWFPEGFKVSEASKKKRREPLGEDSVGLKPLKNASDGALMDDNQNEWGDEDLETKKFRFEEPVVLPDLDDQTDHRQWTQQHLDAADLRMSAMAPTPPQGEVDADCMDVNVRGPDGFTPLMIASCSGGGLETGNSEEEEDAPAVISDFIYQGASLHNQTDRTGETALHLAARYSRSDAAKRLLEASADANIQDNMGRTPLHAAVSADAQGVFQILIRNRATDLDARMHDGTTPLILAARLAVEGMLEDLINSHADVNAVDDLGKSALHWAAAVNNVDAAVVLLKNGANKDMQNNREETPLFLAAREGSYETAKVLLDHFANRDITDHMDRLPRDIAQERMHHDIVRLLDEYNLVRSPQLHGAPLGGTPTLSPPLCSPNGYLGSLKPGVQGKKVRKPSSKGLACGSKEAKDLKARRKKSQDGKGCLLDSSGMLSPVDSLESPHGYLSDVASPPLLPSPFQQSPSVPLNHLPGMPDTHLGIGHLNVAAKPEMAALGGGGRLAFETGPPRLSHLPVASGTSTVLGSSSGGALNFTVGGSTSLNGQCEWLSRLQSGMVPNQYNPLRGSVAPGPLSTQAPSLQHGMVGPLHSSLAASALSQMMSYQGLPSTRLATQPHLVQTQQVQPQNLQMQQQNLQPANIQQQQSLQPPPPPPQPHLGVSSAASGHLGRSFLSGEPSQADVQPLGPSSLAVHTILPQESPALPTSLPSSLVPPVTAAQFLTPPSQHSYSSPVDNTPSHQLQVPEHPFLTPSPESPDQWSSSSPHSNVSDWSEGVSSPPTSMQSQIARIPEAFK
# No constants are given. Whether binding was seen depends on the method and setting. In cells and extracts the contact can be indirect. Some entries that bind do so weakly or less than the wild type.
# Key:
# [1] = target: β-catenin (human (endogenous in GC cell lines)) (UniProt P35222); assay: co-IP; as a1, but GC cells (in vitro) and tumours (in vivo) treated with luteolin
# [2] = target: β-catenin (human (endogenous in GC cell lines)) (UniProt P35222); assay: co-IP; GC cells lysed in RIPA at 4 °C; 300 μg protein incubated overnight at 4 °C with β-catenin and NICD antibodies; protein A/G Sepharose beads; Western blot
substance,measurement,setting,value
Notch intracellular domain (NICD) of Notch1 (from UniProt P46531 1754-2555) (domain or fragment),binding,[1],no binding (condition: with luteolin treatment)
same,binding,[2],binds
